According to paper PMC4691244:
Results are given in words; binding and its absence hold for the method and conditions named. In cells and extracts the contact can be indirect. For some assays here: Where a sequence is shown, tags or fusion partners need not be part of it.

Columns and labels:
[1] = target: T1, FLAG-DGCR8 (human), Q8WYQ5; assay: co-IP; anti-T7 or anti-FLAG immunoprecipitation of overexpressed T7-DGCR8, FLAG-DGCR8, FLAG-Drosha (and T7-DGCR8 dRBD1&2 mut) from transfected HEK293T cells; western blot of endogenous partners; in the presence or absence of RNase A (Figure 1C); conditions: remark: other sources report otherwise
T1 chain: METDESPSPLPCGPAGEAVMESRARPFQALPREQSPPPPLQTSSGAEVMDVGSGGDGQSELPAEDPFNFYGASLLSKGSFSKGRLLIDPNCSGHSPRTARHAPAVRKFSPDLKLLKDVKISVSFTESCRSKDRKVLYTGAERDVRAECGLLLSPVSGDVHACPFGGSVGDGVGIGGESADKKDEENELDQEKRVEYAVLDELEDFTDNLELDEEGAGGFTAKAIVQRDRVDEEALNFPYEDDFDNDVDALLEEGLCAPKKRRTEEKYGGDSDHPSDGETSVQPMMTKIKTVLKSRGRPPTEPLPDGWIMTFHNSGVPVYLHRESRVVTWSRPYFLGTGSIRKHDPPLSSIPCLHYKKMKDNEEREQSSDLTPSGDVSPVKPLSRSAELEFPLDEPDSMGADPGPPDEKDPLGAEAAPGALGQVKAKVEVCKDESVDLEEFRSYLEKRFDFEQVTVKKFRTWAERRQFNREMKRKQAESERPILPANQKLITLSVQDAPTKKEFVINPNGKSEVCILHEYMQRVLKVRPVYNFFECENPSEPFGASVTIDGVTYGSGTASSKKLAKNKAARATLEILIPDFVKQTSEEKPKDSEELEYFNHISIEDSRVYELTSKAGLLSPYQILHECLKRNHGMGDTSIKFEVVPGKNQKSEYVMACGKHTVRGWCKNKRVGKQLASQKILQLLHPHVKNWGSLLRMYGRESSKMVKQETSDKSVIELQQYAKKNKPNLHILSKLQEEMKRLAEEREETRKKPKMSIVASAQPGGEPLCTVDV

T7-DGCR8 (human), Q8WYQ5 = target: T2, T7-DGCR8 (human), Q8WYQ5; assay: as above; conditions: remark: other sources report otherwise
T2 chain: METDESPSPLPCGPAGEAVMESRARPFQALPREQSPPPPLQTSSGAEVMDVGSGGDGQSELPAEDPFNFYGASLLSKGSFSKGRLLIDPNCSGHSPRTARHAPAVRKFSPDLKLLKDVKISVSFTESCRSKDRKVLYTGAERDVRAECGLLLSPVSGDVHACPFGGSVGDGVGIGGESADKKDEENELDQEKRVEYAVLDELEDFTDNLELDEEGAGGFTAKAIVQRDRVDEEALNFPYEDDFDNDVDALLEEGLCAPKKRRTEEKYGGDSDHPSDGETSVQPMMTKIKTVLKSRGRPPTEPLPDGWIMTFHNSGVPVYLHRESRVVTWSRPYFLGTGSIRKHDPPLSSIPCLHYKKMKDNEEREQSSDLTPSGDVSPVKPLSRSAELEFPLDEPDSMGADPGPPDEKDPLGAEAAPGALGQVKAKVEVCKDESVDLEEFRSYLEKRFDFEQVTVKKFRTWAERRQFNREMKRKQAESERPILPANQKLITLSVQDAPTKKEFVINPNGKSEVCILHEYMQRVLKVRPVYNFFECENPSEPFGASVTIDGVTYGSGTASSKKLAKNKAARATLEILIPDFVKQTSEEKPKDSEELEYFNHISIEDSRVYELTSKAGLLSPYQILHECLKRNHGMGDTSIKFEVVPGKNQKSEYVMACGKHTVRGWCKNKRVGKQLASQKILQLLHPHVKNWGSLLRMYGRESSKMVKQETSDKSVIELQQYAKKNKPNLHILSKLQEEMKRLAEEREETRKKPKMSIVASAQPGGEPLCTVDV

B1: hDIS3, Q9Y2L1 1-958 (enzyme)
chain: MLKSKTFLKKTRAGGVMKIVREHYLRDDIGCGAPGCAACGGAHEGPALEPQPQDPASSVCPQPHYLLPDTNVLLHQIDVLEDPAIRNVIVLQTVLQEVRNRSAPVYKRIRDVTNNQEKHFYTFTNEHHRETYVEQEQGENANDRNDRAIRVAAKWYNEHLKKMSADNQLQVIFITNDRRNKEKAIEEGIPAFTCEEYVKSLTANPELIDRLACLSEEGNEIESGKIIFSEHLPLSKLQQGIKSGTYLQGTFRASRENYLEATVWIHGDNEENKEIILQGLKHLNRAVHEDIVAVELLPKSQWVAPSSVVLHDEGQNEEDVEKEEETERMLKTAVSEKMLKPTGRVVGIIKRNWRPYCGMLSKSDIKESRRHLFTPADKRIPRIRIETRQASTLEGRRIIVAIDGWPRNSRYPNGHFVRNLGDVGEKETETEVLLLEHDVPHQPFSQAVLSFLPKMPWSITEKDMKNREDLRHLCICSVDPPGCTDIDDALHCRELENGNLEVGVHIADVSHFIRPGNALDQESARRGTTVYLCEKRIDMVPELLSSNLCSLKCDVDRLAFSCIWEMNHNAEILKTKFTKSVINSKASLTYAEAQLRIDSANMNDDITTSLRGLNKLAKILKKRRIEKGALTLSSPEVRFHMDSETHDPIDLQTKELRETNSMVEEFMLLANISVAKKIHEEFSEHALLRKHPAPPPSNYEILVKAARSRNLEIKTDTAKSLAESLDQAESPTFPYLNTLLRILATRCMMQAVYFCSGMDNDFHHYGLASPIYTHFTSPIRRYADVIVHRLLAVAIGADCTYPELTDKHKLADICKNLNFRHKMAQYAQRASVAFHTQLFFKSKGIVSEEAYILFVRKNAIVVLIPKYGLEGTVFFEEKDKPNPQLIYDDEIPSLKIEDTVFHVFDKVKVKIMLDSSNLQHQKIRMSLVEPQIPGISIPTDTSNMDLNGPKKKKMKLGK
With B1 the binding [1] was “no binding” and the binding (T7-DGCR8 (human), Q8WYQ5) was “no binding”.
